For four molecules, binding results are on record in publication PMC7413384.

The chains behind the UniProt entries cited, without tags or fusion partners.
UniProt P68400: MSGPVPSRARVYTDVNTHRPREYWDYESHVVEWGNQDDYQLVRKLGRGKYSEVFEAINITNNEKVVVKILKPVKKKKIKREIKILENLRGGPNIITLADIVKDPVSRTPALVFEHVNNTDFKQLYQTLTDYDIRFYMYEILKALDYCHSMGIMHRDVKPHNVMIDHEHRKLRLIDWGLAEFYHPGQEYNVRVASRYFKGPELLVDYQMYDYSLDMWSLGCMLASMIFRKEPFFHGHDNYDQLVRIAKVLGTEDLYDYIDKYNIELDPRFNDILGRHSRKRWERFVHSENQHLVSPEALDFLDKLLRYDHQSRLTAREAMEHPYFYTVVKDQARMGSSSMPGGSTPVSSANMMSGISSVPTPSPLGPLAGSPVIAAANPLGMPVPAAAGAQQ

Results are given in words; binding and its absence hold for the method and conditions named. Binding seen in cells or lysates may run through a third protein. Some entries that bind do so weakly or less than the wild type. For some of these results: Tags and fused reporters may be left off the sequences shown.

For experiment [1], the target named is T1, NIP30 (in co-immunoprecipitations where the construct is not told) (human) (UniProt Q9GZU8).
T1 sequence: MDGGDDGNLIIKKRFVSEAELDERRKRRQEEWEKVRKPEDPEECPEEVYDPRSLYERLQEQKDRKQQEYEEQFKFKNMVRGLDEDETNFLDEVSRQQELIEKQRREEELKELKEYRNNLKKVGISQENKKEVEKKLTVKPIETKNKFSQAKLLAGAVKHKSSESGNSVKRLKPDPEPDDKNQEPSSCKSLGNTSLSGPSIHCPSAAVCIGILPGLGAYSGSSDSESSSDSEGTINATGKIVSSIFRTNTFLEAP
The experiment is described as follows: co-IP; co-immunoprecipitation of CK2 catalytic subunits with NIP30 (Supplementary Fig. 5b).

A further experiment addresses T2, HA-NIP30 (human) (UniProt Q9GZU8).
T2 sequence: T1 sequence
The experiment in a line: co-IP; 293T cells transfected with HA-NIP30 and flag-CDC25A or a flag-control vector for 36 h; immunoprecipitation with Flag-M2 agarose beads or HA beads.

The next experiment has as its target T3, flag-CDC25A (human) (UniProt P30304).
T3 sequence: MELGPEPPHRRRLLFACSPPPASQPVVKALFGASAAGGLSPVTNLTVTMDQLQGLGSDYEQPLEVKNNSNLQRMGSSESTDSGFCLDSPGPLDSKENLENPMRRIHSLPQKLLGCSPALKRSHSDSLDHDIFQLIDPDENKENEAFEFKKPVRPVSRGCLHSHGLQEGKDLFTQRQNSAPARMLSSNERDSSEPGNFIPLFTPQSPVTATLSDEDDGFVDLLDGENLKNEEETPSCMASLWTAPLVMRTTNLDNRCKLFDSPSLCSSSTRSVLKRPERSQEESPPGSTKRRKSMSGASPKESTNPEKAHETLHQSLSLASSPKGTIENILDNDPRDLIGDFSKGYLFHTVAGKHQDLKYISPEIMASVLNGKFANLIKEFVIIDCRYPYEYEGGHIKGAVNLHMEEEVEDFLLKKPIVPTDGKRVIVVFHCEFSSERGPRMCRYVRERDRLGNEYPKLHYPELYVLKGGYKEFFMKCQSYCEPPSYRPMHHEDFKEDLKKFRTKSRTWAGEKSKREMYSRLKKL
The experiment is described as above.

On to “CK2α’ (Casein Kinase 2 catalytic subunit) (from UniProt P19784 1-350) (enzyme)”, for which the binding result in experiment [1] is reported as “binds”. On the same count and under the same terms, to “CK2α (Casein Kinase 2 catalytic subunit) (from UniProt P68400 1-391) (enzyme)” belongs “binds”.

B1: flag-CDC25A (enzyme, UniProt P30304 1-524)
chain: T3 sequence
On to B1, for which, in the experiment with HA-NIP30 (human), the binding result was “binds”.

B2: HA-NIP30 (protein, UniProt Q9GZU8 1-254)
chain: T1 sequence
Regarding B2, the binding entry with flag-CDC25A (human) is listed as “binds”.
